Source: patent EP4659808A2
Results are given in words; binding and its absence hold for the method and conditions named. For some assays here: Binding can be weak; no strength is given.

Columns and labels:
[1] = target: murine beta-DG extracellular domain (mbeta-DG ECD) (mouse); experiment: dot blot
[2] = target: murine beta-DG extracellular domain (mbeta-DG ECD) (mouse); experiment: sequential SPR (Biacore), antibody on chip
[3] = target: beta-DG (species not told at the place); experiment: phage ELISA of phage display clones
[4] = target: beta-DG (species not told at the place); experiment: ELISA on beta-DG coat with blood samples of dosed mice

B1: anti-beta-DG antibody derived from hybridoma clone AS30 (antibody, V domains shown)
VH: QIQLQQSGPELVKPGASVKMSCEASGFTFTDSVITWVKQRPGQGLEWIGEIYPGSGNFYYNEKFKGKATLTADKSSNTAYMQLRSLTSEDSAVYFCAMRRSSWGQGTLVTVSA
VL: DVLMTQTPLSLPVSLGDQASISCRSSQTIVHSNSKTYLEWYLQKPGQSPKLLIYKVSNRFSGVPDRFSGSGSGTDFTLKISRVEAEDLGVYYCFQGSHVPLTFGAGTKLELK
[1]
  binding: binds

B2: anti-beta-DG antibody derived from hybridoma clone AS19 (antibody, V domains shown)
VH: QVQLQQSGPELVKPGASVKMSCKASGFTFTDSVISWVKQRTGQGLEWIGEIYPGSGSIYYNEKFKGKATLTADKSSNTAYMQLRSLTSEDSAVYFCAMRRSYWGQGTLVTVSA
VL: DVLMTQTPLSLPVSLGDQASISCRSSQSIVHSNGNTYLEWYLQKPGQSPKLLIYKVSNRFSGVPDRFSGSGSGTDFTLKISRVEAEDLGVYYCFQGSHVPLTFGAGTKLELK
[1]
  binding: binds
[2]
  binding: binds

B3: bispecific antibody T1T2, anti-beta-DG(AS19) x anti-laminin-2(C3), TBTI with (GGGGS)2 linker (bispecific antibody, not shown: a dimerising Fc or GST)
heavy: QVQLQQSGPELVKPGASVKMSCKASGFTFTDSVISWVKQRTGQGLEWIGEIYPGSGSIYYNEKFKGKATLTADKSSNTAYMQLRSLTSEDSAVYFCAMRRSYWGQGTLVTVSAGGGGSGGGGSDVMLVESGGDLVKPGGSLKLSCAASGFTFSSYTMSWVRQTPEKRLEWVASISSGGGNTYYPDSVKGRFTISRDNAKNNLYLQMSSLRSEDTALYYCARFDYGSSLDSWGQGTTLTVSS
light: DVLMTQTPLSLPVSLGDQASISCRSSQSIVHSNGNTYLEWYLQKPGQSPKLLIYKVSNRFSGVPDRFSGSGSGTDFTLKISRVEAEDLGVYYCFQGSHVPLTFGAGTKLELKGGGGSGGGGSDIVLTQSPATLSVTPGDSVSLSCRASQSISNNLHWYQQKSHESPRLLIKYASQSISGIPSRFSGSGSGTDFTLSINSVETEDFGMYFCQQSKNWPRTFGGGTKLEIK
[2]
  binding: binds

B4: bispecific antibody T5T6, anti-beta-DG(AS30) x anti-laminin-2(C3), TBTI with (GGGGS)2 linker (bispecific antibody, not shown: a dimerising Fc or GST)
heavy: QIQLQQSGPELVKPGASVKMSCEASGFTFTDSVITWVKQRPGQGLEWIGEIYPGSGNFYYNEKFKGKATLTADKSSNTAYMQLRSLTSEDSAVYFCAMRRSSWGQGTLVTVSAGGGGSGGGGSDVMLVESGGDLVKPGGSLKLSCAASGFTFSSYTMSWVRQTPEKRLEWVASISSGGGNTYYPDSVKGRFTISRDNAKNNLYLQMSSLRSEDTALYYCARFDYGSSLDSWGQGTTLTVSS
light: DVLMTQTPLSLPVSLGDQASISCRSSQTIVHSNSKTYLEWYLQKPGQSPKLLIYKVSNRFSGVPDRFSGSGSGTDFTLKISRVEAEDLGVYYCFQGSHVPLTFGAGTKLELKGGGGSGGGGSDIVLTQSPATLSVTPGDSVSLSCRASQSISNNLHWYQQKSHESPRLLIKYASQSISGIPSRFSGSGSGTDFTLSINSVETEDFGMYFCQQSKNWPRTFGGGTKLEIK
[2]
  binding: binds

B5: bispecific antibody C5C6, anti-beta-DG(AS30) x anti-laminin-2(C3), CODV with 10-10-0-0 linker (bispecific antibody, not shown: a dimerising Fc or GST)
heavy: QIQLQQSGPELVKPGASVKMSCEASGFTFTDSVITWVKQRPGQGLEWIGEIYPGSGNFYYNEKFKGKATLTADKSSNTAYMQLRSLTSEDSAVYFCAMRRSSWGQGTLVTVSADVMLVESGGDLVKPGGSLKLSCAASGFTFSSYTMSWVRQTPEKRLEWVASISSGGGNTYYPDSVKGRFTISRDNAKNNLYLQMSSLRSEDTALYYCARFDYGSSLDSWGQGTTLTVSS
light: DIVLTQSPATLSVTPGDSVSLSCRASQSISNNLHWYQQKSHESPRLLIKYASQSISGIPSRFSGSGSGTDFTLSINSVETEDFGMYFCQQSKNWPRTFGGGTKLEIKGGSGSSGSGGDVLMTQTPLSLPVSLGDQASISCRSSQTIVHSNSKTYLEWYLQKPGQSPKLLIYKVSNRFSGVPDRFSGSGSGTDFTLKISRVEAEDLGVYYCFQGSHVPLTFGAGTKLELKGGSGSSGSGG
[2]
  binding: binds

B6: anti-beta-DG antibody phage display clone B04 (antibody, V domains shown)
VH: QVQLQQSGGGLVQPGGSLRLSCAASGFTFSSYAMSWVRQAPGKGLEWVSAISGSGGSTYYADSVKGRFTVSRDNSKNTLYLQMNSLRAEDTAVYYCARLGYCSSTSCYLSAFDIWGQGTMVTVSS
VL: EIVLTQSPSTLSASVGDRVTITCRASQSISSWLAWYQQKPGKAPKLLIYDASSLESGVPSRFSGSGSGTEFTLTISSLQPDDFATYYCQQYNSYPLTFGGGTKVEIK
[3]
  binding: binds

B7: anti-laminin-2 antibody derived from hybridoma clone C3 (antibody, V domains shown)
VH: DVMLVESGGDLVKPGGSLKLSCAASGFTFSSYTMSWVRQTPEKRLEWVASISSGGGNTYYPDSVKGRFTISRDNAKNNLYLQMSSLRSEDTALYYCARFDYGSSLDSWGQGTTLTVSS
VL: DIVLTQSPATLSVTPGDSVSLSCRASQSISNNLHWYQQKSHESPRLLIKYASQSISGIPSRFSGSGSGTDFTLSINSVETEDFGMYFCQQSKNWPRTFGGGTKLEIK
[4]
  binding: no binding
